# Data from PubChem BioAssay AID624297 (National Center for Advancing Translational Sciences (NCATS), 2012).
# Among all 340,000 compounds or so, about 6,200 (1.8%) were called active. The inconclusive results got no clear call from the source; some entries with a clear call stand among them for comparison. The call rests on the fitted dose curve; in most records, active means well fitted activation curve with a large enough effect; inconclusive means small, poorly fitted or top-dose-only effect; inactive means no such curve, though single readings can be large or run the other way. Potencies beside an inconclusive call are fits to weak or partial responses and may not hold up.
# Assay: A quantitative high throughput screen for small molecules that induce DNA re-replication in SW480 colon adenocarcinoma cells. Further: nearly all actives have a fitted effect of over 55% in size. On re-replication activation: % of control where 0% means no effect.
# Details: Hoechst DNA content imaging, 48 h; re-replication activation: at 46.1 µM (top of the series) unless noted
# In short: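 Image-based read-out: total Hoechst fluorescence of nuclei (405 nm excitation, 500-530 nm emission), with hits raising the fraction of high-intensity nuclei. SW480 colon cells incubated 48 hr with compounds at 37 C.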
# Potency means the concentration at half of the fitted maximal effect.
SMILES,re-replication activation,Potency
Cc1cc(C)cc(OCC(=O)N(Cc2ccccc2)C2CCS(=O)(=O)C2)c1 (stereo unspecified),inactive: -8.94%,–
CC(C)OC(=O)c1cc2c(ccn2C)n1CC(=O)N(Cc1ccccc1)c1ccccc1,–,"inconclusive: 18.4 µM [activator, single point]"
CCOc1ccccc1NC(=O)Nc1cc(S(=O)(=O)N(C)C)ccc1C,–,"inconclusive: 29.1 µM [activator, single point]"
O=C1OC(c2ccc(Cl)cc2)=N/C1=C\C=C\c1ccco1,inactive: -11.8%,–
Cc1ccc(CN(C(=O)c2cc(=O)c3cc(Cl)c(C)cc3o2)C2CCS(=O)(=O)C2)cc1 (stereo unspecified),–,"inconclusive: 20.6 µM [activator, partial curve, poor fit]"
Cc1c(C(=O)O)[nH]c2c1C(=O)CC(c1ccc(C(C)(C)C)cc1)C2 (stereo unspecified),inactive: -5.05%,–
Cc1nnsc1S(=O)c1ccc(Cl)c(Cl)c1 (stereo unspecified),inconclusive: 122% [activator],–
CC(C)(C)OC(=O)N[C@@H](C(=O)OC(C)(C)C)c1ccc2ccccc2c1,inactive: -87%,–
C[C@@H](C(=O)Nc1ccc2ccccc2c1)[C@@H]1C[C@@]1(C)[C@@H](NC(=O)OCc1ccccc1)c1ccccc1,–,"inconclusive: 0.116 µM [activator, full curve, poor fit]"
CCOc1ccccc1NC(=O)CSc1nnc(C2CC2)n1CC,inactive: -7.01%,–
CCCCCCc1cc2cc(/C(N)=N/NC(=O)c3ccncc3)c(=O)oc2cc1O,–,active: 1.64 µM
Cc1nn(C)cc1/C=C/C(=O)c1ccccc1,–,"inconclusive: 23.1 µM [activator, partial curve, poor fit]"
CCOc1cc(C(=O)Nc2ccc(S(=O)(=O)NC3=NCCCCC3)cc2)cc(Br)c1OC,–,"inconclusive: 16.4 µM [activator, partial curve, poor fit]"
O=C(NCCS(=O)(=O)N1CCN(c2ccccc2)CC1)c1ccc(Br)o1,–,"inconclusive: 0.517 µM [activator, full curve, poor fit]"
O=C1CCCc2nc3c(cc21)C(O)Oc1c-3ccc2ccccc12 (stereo unspecified),–,"inconclusive: 29.1 µM [activator, partial curve, poor fit]"
CCOC(=O)N1CCC(NC(=O)c2cc(C(=O)Nc3cccc(C(F)(F)F)c3)ccc2CO)CC1,–,"inconclusive: 18.4 µM [activator, single point]"
COC(=O)c1c(-c2cccs2)csc1NC(=O)CN1CCOCC1,–,"inconclusive: 20.6 µM [activator, partial curve, poor fit]"
O=C(N/N=C/c1cc(Cl)ccc1O)C(=O)Nc1ccccc1OC(F)(F)C(F)F,–,"inconclusive: 5.8 µM [activator, full curve]"
OC(CN1CCN(Cc2ccc3c(c2)OCO3)CC1)c1c[nH]c2ccccc12 (stereo unspecified),–,"inconclusive: 29.1 µM [activator, single point]"
COc1cccc(C(=O)N2N=C(c3ccccn3)CC2(O)C(F)(F)F)c1 (stereo unspecified),–,"inconclusive: 25.9 µM [activator, single point]"
COc1ccc(S(=O)(=O)N2Cc3ccccc3CC2C(=O)Nc2nccs2)cc1 (stereo unspecified),inactive: -9.14%,–

SMILES,re-replication activation,Potency
CCCCN1C2=NC(c3ccccc3)CN2c2ccccc21 (stereo unspecified),–,"inconclusive: 29.1 µM [activator, partial curve, poor fit]"
CC1=CC(=C(C#N)c2nc3ccccc3s2)C=C(C)N1CC1CCCO1 (stereo unspecified),–,active: 23.1 µM
CCOC(=O)COc1ccc(S(=O)(=O)c2ccc(OCC(=O)OCC)cc2)cc1,–,"inconclusive: 16.4 µM [activator, partial curve, poor fit]"
CCCc1cc(=O)oc2c(C)c(OCC(=O)NCCCn3ccnc3)ccc12,–,"inconclusive: 5.8 µM [activator, single point]"
CC(=O)Nc1ccc(NC(=O)c2ccc(S(=O)(=O)N(C)c3ccccc3)cc2)cc1,inactive: 0.739%,–
O=C(C1CCN(Cc2ccc(Cl)cc2)CC1)N1CCN(C(c2ccccc2)c2ccccc2)CC1,–,"inconclusive: 29.1 µM [activator, single point]"
CCOC(=O)Cc1nnc(NC(=O)CSc2nncn2C)s1,–,"inconclusive: 20.6 µM [activator, single point]"
COc1ccccc1C(=O)NCCC(=O)NCCc1ccccc1,inactive: -4.41%,–
COCCN1CCN(C(=O)c2ccc3nc(Cc4ccccc4F)oc3c2)CC1,–,"inconclusive: 29.1 µM [activator, single point]"
COc1ccc(C2COC(=O)C2=N)c(NC(=O)c2ccccc2)c1 (stereo unspecified),–,"inconclusive: 0.146 µM [activator, full curve, poor fit]"
Cc1ccc(S(=O)(=O)N(CC(=O)Nc2ccc(Cl)c([N+](=O)[O-])c2)C2CCCCC2)cc1,–,"inconclusive: 10.3 µM [activator, partial curve]"
O=C(COC(=O)CCCN1C(=O)c2cccc3cccc(c23)C1=O)Nc1cccc(C(F)(F)F)c1,inactive: -6.21%,–
O=c1[nH]c(-c2ccc(Cl)cc2)cs1,inactive: -10.2%,–
CCN(CC)c1ccc2c(C)c(Cl)c(=O)oc2c1,–,"inconclusive: 2.31 µM [activator, single point]"
O=C(CCc1nc2ccccc2c(=O)[nH]1)N1CCN(S(=O)(=O)c2cccc([N+](=O)[O-])c2)CC1,–,"inconclusive: 0.0461 µM [activator, full curve, poor fit]"
Cc1ccc(NC(=O)COC(=O)CCc2ccc(S(=O)(=O)N3CCOCC3)cc2)c(C)c1,–,"inconclusive: 29.1 µM [activator, partial curve, poor fit]"
COc1ccc(N(C(=O)C2COc3ccccc3O2)C(C(=O)NC2CCCCC2)c2ccccc2)cc1OC (stereo unspecified),–,"inconclusive: 29.1 µM [activator, partial curve, poor fit]"
COc1ccc2nc(C)cc(NCc3ccc(F)cc3)c2c1,–,"inconclusive: 25.9 µM [activator, single point]"
Cc1nn(-c2ccccc2)c2c1C1(C(=O)N(C)c3ccccc31)C(C#N)=C(N)O2 (stereo unspecified),–,"inconclusive: 32.6 µM [activator, partial curve, poor fit]"
O=C(Nc1ncc(Cc2cccc(Cl)c2)s1)C1=NCCN1,inactive: 8.11%,–

# Fetched by compound from the entries so far (three):
SMILES,re-replication activation,Potency
O=C(NCCS(=O)(=O)N1CCN(c2ccccc2)CC1)c1ccc(Br)o1,–,"inconclusive: 0.517 µM [activator, full curve, poor fit]"
CC1=CC(=C(C#N)c2nc3ccccc3s2)C=C(C)N1CC1CCCO1 (stereo unspecified),–,active: 23.1 µM
O=c1[nH]c(-c2ccc(Cl)cc2)cs1,inactive: -10.2%,–
